Data published in patent US20120121581A1 (XOMA TECHNOLOGY, published 2012).
No constants are given. Whether binding was seen depends on the method and setting. Some entries that bind do so weakly or less than the wild type.

Amino acid sequences for entries named in this document (tags omitted). Residues count along the entry.
BoNT/A light-chain heavy-chain N-terminus (LCHN) domain (P0DPI0, residues 1-870): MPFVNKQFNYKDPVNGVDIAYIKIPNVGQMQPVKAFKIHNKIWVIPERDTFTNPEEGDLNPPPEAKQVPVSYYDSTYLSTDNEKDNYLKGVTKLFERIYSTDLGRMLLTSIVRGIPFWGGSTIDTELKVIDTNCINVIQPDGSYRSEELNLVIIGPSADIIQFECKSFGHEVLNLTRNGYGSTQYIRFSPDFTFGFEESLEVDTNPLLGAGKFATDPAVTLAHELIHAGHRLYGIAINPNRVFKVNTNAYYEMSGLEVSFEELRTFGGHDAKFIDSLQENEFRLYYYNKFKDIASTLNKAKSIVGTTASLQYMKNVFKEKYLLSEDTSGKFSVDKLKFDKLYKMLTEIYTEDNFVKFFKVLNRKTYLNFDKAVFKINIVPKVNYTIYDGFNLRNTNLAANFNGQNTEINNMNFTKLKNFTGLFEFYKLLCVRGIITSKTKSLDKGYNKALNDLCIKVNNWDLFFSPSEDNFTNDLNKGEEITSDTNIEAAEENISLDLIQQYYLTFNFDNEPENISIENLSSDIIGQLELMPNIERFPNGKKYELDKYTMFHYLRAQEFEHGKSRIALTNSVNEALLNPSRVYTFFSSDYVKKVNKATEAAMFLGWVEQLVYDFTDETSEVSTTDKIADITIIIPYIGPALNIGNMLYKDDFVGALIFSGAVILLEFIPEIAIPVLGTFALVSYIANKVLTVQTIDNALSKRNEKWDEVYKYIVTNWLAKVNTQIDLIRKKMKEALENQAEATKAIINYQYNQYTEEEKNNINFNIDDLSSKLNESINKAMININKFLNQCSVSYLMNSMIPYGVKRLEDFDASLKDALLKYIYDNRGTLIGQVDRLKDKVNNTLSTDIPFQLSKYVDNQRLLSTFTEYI
BoNT/A heavy-chain C-terminus (HCC) domain (P0DPI0, residues 1093-1296): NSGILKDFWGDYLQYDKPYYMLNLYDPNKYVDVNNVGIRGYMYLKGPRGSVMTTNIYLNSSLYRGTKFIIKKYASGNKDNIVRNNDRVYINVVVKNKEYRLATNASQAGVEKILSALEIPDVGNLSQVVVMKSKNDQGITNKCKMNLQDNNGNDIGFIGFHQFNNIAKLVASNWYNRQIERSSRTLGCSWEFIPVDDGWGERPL

Assays:
[1] = target: BoNT/A heavy-chain C-terminus (HCC) domain (UniProt P0DPI0); test: toxin domain binding ELISA of the mixture after 24 months at 2-8 C
[2] = target: BoNT/A heavy-chain C-terminus (HCC) domain (UniProt P0DPI0); test: toxin domain ELISA of the 1:1:1 co-formulated mixture
[3] = target: BoNT/A heavy-chain C-terminus (HCC) domain (UniProt P0DPI0); test: ELISA, toxin domain coated on plate (method qualification)
[4] = target: BoNT/A heavy-chain C-terminus (HCC) domain (UniProt P0DPI0); test: ELISA, toxin domain coated on plate, anti-human IgG Fc-HRP detection
[5] = target: BoNT/A light-chain heavy-chain N-terminus (LCHN) domain (UniProt P0DPI0); test: toxin domain binding ELISA of the mixture after 24 months at 2-8 C
[6] = target: BoNT/A light-chain heavy-chain N-terminus (LCHN) domain (UniProt P0DPI0); test: toxin domain ELISA of the 1:1:1 co-formulated mixture
[7] = target: BoNT/A light-chain heavy-chain N-terminus (LCHN) domain (UniProt P0DPI0); test: ELISA, toxin domain coated on plate (method qualification)
[8] = target: BoNT/A light-chain heavy-chain N-terminus (LCHN) domain (UniProt P0DPI0); test: ELISA, toxin domain coated on plate, anti-human IgG Fc-HRP detection

Measured: binding

B1: ABT02 (antibody, V domains shown)
VH: QVQLVQSGGGVVHPGRSLKLSCAGSGFTFSDYDMHWVRQAPGKGLEWVAVMWFDGTEKYSAESVKGRFTISRDNSKNTLFLQMNSLRADDTAVYYCAREPDWLLWGDRGALDVWGQGTTVTVSS
VL: DIVMTQSPSTLSASVGDRVTITCWASQSISSRLAWYQQKPGKAPKLLMYEATSLGSGVPSRFSGSGSGTEFTLTISSLQPDDFAAYYCQHYDTYPYTFGQGTKLEIK
binds: [1] | [2] | [3] | [4]

B2: ABT03 (antibody, V domains shown)
VH: QVQLQQSGGGLVQPGGSLRLSCAASGFTFSNYAMTWVRQAPGKGLEWVSSISVGGSDTYYADSVKGRFTVSRDNSKNTLLLQMNSLRAEDTAVYYCAKVRTKYCSSLSCFAGFDSWGQGTRVTVSS
VL: DVVMTQSPSSLSASVGDRVTITCRASQSISSYLHWYQQKPGKAPTLLISDASSSQSGVPSRFSGSRFGTDFTLTISSLQPEDFATYYCQQSYSTRALTFGGGTKVEIK
binds: [5] | [6] | [7] | [8]
